According to patent US6153225A (Elan Pharma International Limited, priority 1998, dated 2000):

Assays:
[1] = in vivo; conditions: rabbit, plasma, 15 mg/kg
[2] = oral administration; cited from earlier work

COc1ccc2cc([C@H](C)C(=O)O)ccc2c1 [Naproxen, d-2(6-methoxy-2-naphthyl)propionic acid]
AUC ([1]; im): 287 µg·h/mL
Cmax ([1]; im): 45000 ± 9000 ng/mL
concentration at 0.5 h ([1]; im): 23500 ± 5100 ng/mL
concentration at 12 h ([1]; im): 5200 ± 3400 ng/mL
AUC ([1]; iv): 212 µg·h/mL
gastrointestinal irritation [2]: frequently results in gastrointestinal irritation
